Results on one substance are retold here after PMC12778052 (Science Advances, 2026).

The series in a line: general procedure: Fmoc solid-phase peptide synthesis; Rink Amide resin; Oxyma, N,N'-diisopropyl... The note with it: whole synthesis, scale 0.1 mmol.

In turn, “NH2-PEG12-(Cys-Pro-Nal-Asp-Cys-Met-hArg-dAsp-Trp-Ser-Thr-Pro-Hyp-Trp-Cys)-TATA–based cyclization” came in with an isolated mass of 30 mg and an isolated yield of 25% yield.
